Reference: article PMC10670193

Biological target: λN-GFP-Bonus (Drosophila)
Assay: affinity purification with mass spectrometry; anti-GFP antibody and Protein G Dynabeads from lysate of ovaries expressing λN-GFP-Bonus; λN-GFP flies as control; 20 mM Tris-HCl pH 7.4, 150 mM NaCl, 10% glycerol, 0.5% DDM, 25 mM NEM; quantitative LC-MS, 2 biological replicates

binding: binds
B1: histone acetyltransferase MOF (protein, UniProt O02193 1-827)
chain: MSEAELEQTPSAGHVQEQPIEEEHEPEQEPTDAYTIGGPPRTPVEDAAAELSASLDVSGSDQSAEQSLDLSGVQAEAAAESEPPAKRQHRDISPISEDSTPASSTSTSSTRSSSSSRYDDVSEAEEAPPEPEPEQPQQQQQEEKKEDGQDQVKSPGPVELEAQEPAQPQKQKEVVDQEIETEDEPSSDTVICVADINPYGSGSNIDDFVMDPDAPPNAIITEVVTIPAPLHLKGTQQLGLPLAAPPPPPPPPAAEQVPETPASPTDDGEEPPAVYLSPYIRSRYMQESTPGLPTRLAPRDPRQRNMPPPAVVLPIQTVLSANVEAISDDSSETSSSDDDEEEEEDEDDALTMEHDNTSRETVITTGDPLMQKIDISENPDKIYFIRREDGTVHRGQVLQSRTTENAAAPDEYYVHYVGLNRRLDGWVGRHRISDNADDLGGITVLPAPPLAPDQPSTSREMLAQQAAAAAAASSERQKRAANKDYYLSYCENSRYDYSDRKMTRYQKRRYDEINHVQKSHAELTATQAALEKEHESITKIKYIDKLQFGNYEIDTWYFSPFPEEYGKARTLYVCEYCLKYMRFRSSYAYHLHECDRRRPPGREIYRKGNISIYEVNGKEESLYCQLLCLMAKLFLDHKVLYFDMDPFLFYILCETDKEGSHIVGYFSKEKKSLENYNVACILVLPPHQRKGFGKLLIAFSYELSRKEGVIGSPEKPLSDLGRLSYRSYWAYTLLELMKTRCAPEQITIKELSEMSGITHDDIIYTLQSMKMIKYWKGQNVICVTSKTIQDHLQLPQFKQPKLTIDTDYLVWSPQTAAAVVRAPGNSG

Results are given in words; binding and its absence hold for the method and conditions named. Binding seen in cells or lysates may run through a third protein. Here binding means that the protein was enriched with, or labelled near, the bait; the list need not be complete. Sequences can lack the tags named with a protein.
